Measurements reported in PubChem BioAssay AID1259308 (NCATS, 2017).
In all, the deposit lists about 59,000 reagents; shown is a part drawn at random. About 1,510 of all reagents (2.6%) were called active. 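Calls use total luciferase alone and ignore viability, so some active siRNAs may act by altering cell number.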 The numbers tell different reagents against one gene apart.

- Test: 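Candidate targets for better recombinant protein yield in mammalian cells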 (primary screen)
- System: human HEK293 embryonic kidney cells stably expressing firefly luciferase (HEK-CMV-Luc2-Hygro)
- Knock-down reagent: single siRNA against human genes, 0.8 pmol siRNA per well
- Duration: 72 h
- Detection: 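Luciferase light (ONE-Glo) measured on one replicate plate set and viability (CellTiter-Glo) on the other, scaled to a negative control siRNA, with robust z-scores and luciferase per cell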
- Direction: total luciferase, z-score and total luciferase, % of control: higher = more reporter protein produced; luciferase per cell, z-score: higher = more reporter output per viable cell; viable cells, % of control: higher = more viable cells
- Call rule: 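An siRNA counts as active if its total luciferase robust z-score exceeds 3; genes with two or more such siRNAs out of three were retested with fresh siRNAs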
- Calls: active = raised luciferase; inactive = no rise

| gene | siRNA no. | total luciferase, z-score | total luciferase, % of control | luciferase per cell, z-score | viable cells, % of control | Call |
| --- | --- | --- | --- | --- | --- | --- |
| CBX7 (GeneID 23492) | 1 | -0.305 | 75.8 | -0.285 | 91.3 | inactive |
| CBX7 (GeneID 23492) | 2 | -1.27 | 56.6 | -0.774 | 77.5 | inactive |
| CBX7 (GeneID 23492) | 3 | 0.458 | 91 | 0.301 | 93.9 | inactive |
| PPFIBP2 (GeneID 8495) | 1 | -0.398 | 74 | -0.681 | 98.9 | inactive |
| PPFIBP2 (GeneID 8495) | 2 | -0.622 | 69.5 | -0.148 | 80.8 | inactive |
| PPFIBP2 (GeneID 8495) | 3 | 0.374 | 89.3 | -0.157 | 104 | inactive |
| AP1M2 (GeneID 10053) | 1 | 1.04 | 103 | 0.955 | 89.2 | inactive |
| AP1M2 (GeneID 10053) | 2 | 0.304 | 87.9 | 0.809 | 79.4 | inactive |
| AP1M2 (GeneID 10053) | 3 | 0.133 | 84.5 | 0.28 | 87.7 | inactive |
| SGSM1 (GeneID 129049) | 1 | 0.374 | 89.3 | -0.0559 | 101 | inactive |
| SGSM1 (GeneID 129049) | 2 | 0.79 | 97.6 | 0.794 | 88.5 | inactive |
| SGSM1 (GeneID 129049) | 3 | 0.285 | 87.6 | -0.567 | 114 | inactive |
| CCDC162P (GeneID 221262) | 1 | 0.331 | 88.5 | 0.897 | 78.1 | inactive |
| CCDC162P (GeneID 221262) | 2 | 0.135 | 84.6 | 1.05 | 71.7 | inactive |
| CCDC162P (GeneID 221262) | 3 | -0.75 | 67 | -0.256 | 80.1 | inactive |
| CCDC162P (GeneID 221262) | 4 | 2.17 | 125 | 3.08 | 62.2 | inactive |
| CCDC162P (GeneID 221262) | 5 | -0.0189 | 81.5 | -0.0672 | 92.7 | inactive |
| CCDC162P (GeneID 221262) | 6 | -0.653 | 68.9 | -1.03 | 101 | inactive |
| MYC (GeneID 4609) | 1 | -0.276 | 76.4 | 1.87 | 52.2 | inactive |
| MYC (GeneID 4609) | 2 | -0.65 | 69 | 1.36 | 53.8 | inactive |
| MYC (GeneID 4609) | 3 | 0.476 | 91.4 | 1.39 | 70.7 | inactive |
| GCNA (GeneID 93953) | 1 | 2.08 | 123 | 1.92 | 83.2 | inactive |
| GCNA (GeneID 93953) | 2 | 0.821 | 98.2 | 1 | 84.3 | inactive |
| GCNA (GeneID 93953) | 3 | 0.78 | 97.4 | 1.25 | 78.3 | inactive |
| CYP4F3 (GeneID 4051) | 1 | 0.628 | 94.4 | 0.981 | 81.4 | inactive |
| CYP4F3 (GeneID 4051) | 2 | -1.1 | 59.9 | -0.699 | 80.5 | inactive |
| CYP4F3 (GeneID 4051) | 3 | 2.24 | 126 | 1.94 | 84.9 | inactive |
| BTNL8 (GeneID 79908) | 1 | 1.46 | 111 | 0.661 | 104 | inactive |
| BTNL8 (GeneID 79908) | 2 | 0.262 | 87.1 | 0.828 | 78.3 | inactive |
| BTNL8 (GeneID 79908) | 3 | 1.34 | 109 | 0.904 | 95.7 | inactive |

Limited to “viable cells, % of control”, for 8 of the entries above:
PPFIBP2 (GeneID 8495) #3	104
AP1M2 (GeneID 10053) #1	89.2
AP1M2 (GeneID 10053) #2	79.4
AP1M2 (GeneID 10053) #3	87.7
SGSM1 (GeneID 129049) #1	101
SGSM1 (GeneID 129049) #2	88.5
SGSM1 (GeneID 129049) #3	114
CCDC162P (GeneID 221262) #1	78.1

Continued.
| gene | siRNA no. | total luciferase, z-score | total luciferase, % of control | luciferase per cell, z-score | viable cells, % of control | Call |
| --- | --- | --- | --- | --- | --- | --- |
| MAP3K19 (GeneID 80122) | 1 | 2.24 | 127 | 1.89 | 86 | inactive |
| MAP3K19 (GeneID 80122) | 2 | -0.0472 | 80.9 | 0.0739 | 88.7 | inactive |
| MAP3K19 (GeneID 80122) | 3 | -0.504 | 71.9 | -1.47 | 118 | inactive |
| C1QA (GeneID 712) | 1 | 0.495 | 91.7 | 0.206 | 97.1 | inactive |
| C1QA (GeneID 712) | 2 | 0.988 | 102 | 1.63 | 73.8 | inactive |
| C1QA (GeneID 712) | 3 | -1.75 | 47.2 | -1.4 | 76.1 | inactive |
| TNFAIP3 (GeneID 7128) | 1 | -2.02 | 41.8 | -3.27 | 111 | inactive |
| TNFAIP3 (GeneID 7128) | 2 | -0.219 | 77.5 | -0.369 | 95.5 | inactive |
| TNFAIP3 (GeneID 7128) | 3 | -0.861 | 64.8 | -1.18 | 98.8 | inactive |
| SPCS1 (GeneID 28972) | 1 | -1.77 | 46.6 | -1.12 | 69.9 | inactive |
| SPCS1 (GeneID 28972) | 2 | -0.761 | 66.7 | -0.34 | 81.6 | inactive |
| SPCS1 (GeneID 28972) | 3 | 0.654 | 94.9 | 0.978 | 82 | inactive |
| ALKBH4 (GeneID 54784) | 1 | 2.95 | 141 | 2.31 | 85.6 | inactive |
| ALKBH4 (GeneID 54784) | 2 | -0.878 | 64.4 | -0.133 | 74.5 | inactive |
| ALKBH4 (GeneID 54784) | 3 | 0.793 | 97.7 | 0.992 | 84 | inactive |
| TRPC3 (GeneID 7222) | 1 | 0.00161 | 81.9 | -0.315 | 99.5 | inactive |
| TRPC3 (GeneID 7222) | 2 | 0.071 | 83.3 | 0.0187 | 92.6 | inactive |
| TRPC3 (GeneID 7222) | 3 | -0.549 | 71 | -0.235 | 84.4 | inactive |
| SLK (GeneID 9748) | 1 | -0.625 | 69.5 | -0.279 | 83.5 | inactive |
| SLK (GeneID 9748) | 2 | -0.258 | 76.8 | -0.635 | 101 | inactive |
| SLK (GeneID 9748) | 3 | 0.0431 | 82.7 | -0.735 | 112 | inactive |
| ENPP4 (GeneID 22875) | 1 | -0.263 | 76.7 | -0.6 | 100 | inactive |
| ENPP4 (GeneID 22875) | 2 | 3.02 | 142 | 2.28 | 87.1 | active |
| ENPP4 (GeneID 22875) | 3 | 0.0032 | 82 | -0.985 | 119 | inactive |
| GLMN (GeneID 11146) | 1 | 0.746 | 96.7 | 0.651 | 91.1 | inactive |
| GLMN (GeneID 11146) | 2 | 1.03 | 102 | 0.328 | 105 | inactive |
| GLMN (GeneID 11146) | 3 | 0.446 | 90.8 | 0.86 | 80.9 | inactive |
| HDAC11 (GeneID 79885) | 1 | -1.63 | 49.4 | -1.56 | 83.1 | inactive |
| HDAC11 (GeneID 79885) | 2 | 0.446 | 90.7 | 0.76 | 83 | inactive |
| HDAC11 (GeneID 79885) | 3 | 0.0857 | 83.6 | 0.642 | 78.9 | inactive |
| KDELR3 (GeneID 11015) | 1 | 1.5 | 112 | 0.74 | 103 | inactive |
| KDELR3 (GeneID 11015) | 2 | -0.802 | 65.9 | 0.415 | 66.1 | inactive |
| KDELR3 (GeneID 11015) | 3 | -0.376 | 74.4 | 0.366 | 75.5 | inactive |
| LOC730179 (retired record) (GeneID 730179) | 1 | -0.708 | 67.8 | -1.2 | 104 | inactive |
| LOC730179 (retired record) (GeneID 730179) | 2 | 1.83 | 118 | 1.67 | 85.1 | inactive |
| LOC730179 (retired record) (GeneID 730179) | 3 | 1.99 | 121 | 1.47 | 92.1 | inactive |
| FAM156B (GeneID 727866) | 1 | -1.66 | 48.8 | -2.16 | 96.3 | inactive |
| FAM156B (GeneID 727866) | 2 | 0.535 | 92.5 | 0.674 | 86.6 | inactive |
| FAM156B (GeneID 727866) | 3 | 1.22 | 106 | 1.21 | 86.2 | inactive |
| SUCLA2P1 (GeneID 646520) | 1 | 0.551 | 92.8 | 1.07 | 78.2 | inactive |
| SUCLA2P1 (GeneID 646520) | 2 | -1.2 | 58 | -1.19 | 88.7 | inactive |
| SUCLA2P1 (GeneID 646520) | 3 | -0.93 | 63.4 | -0.844 | 88.5 | inactive |
| AGRP (GeneID 181) | 1 | -2.22 | 37.7 | -3 | 92.8 | inactive |
| AGRP (GeneID 181) | 2 | 1.33 | 108 | 0.939 | 94.6 | inactive |
| AGRP (GeneID 181) | 3 | 0.956 | 101 | 0.723 | 93.2 | inactive |
